The values below come from PMC11208138.

Chains of the proteins cited; added tags and fusions are not shown.
UniProt P08621: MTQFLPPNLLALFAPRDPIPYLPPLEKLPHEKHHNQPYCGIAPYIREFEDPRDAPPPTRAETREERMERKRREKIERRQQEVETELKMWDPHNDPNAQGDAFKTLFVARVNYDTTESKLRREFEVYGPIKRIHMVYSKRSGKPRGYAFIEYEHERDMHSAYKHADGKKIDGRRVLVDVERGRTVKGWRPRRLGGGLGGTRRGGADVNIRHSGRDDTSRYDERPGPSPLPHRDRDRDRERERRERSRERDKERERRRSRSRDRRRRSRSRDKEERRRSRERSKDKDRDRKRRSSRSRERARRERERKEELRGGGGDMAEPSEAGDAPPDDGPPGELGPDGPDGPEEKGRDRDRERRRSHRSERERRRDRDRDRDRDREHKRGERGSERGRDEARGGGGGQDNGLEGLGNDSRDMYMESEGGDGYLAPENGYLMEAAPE
UniProt P09012: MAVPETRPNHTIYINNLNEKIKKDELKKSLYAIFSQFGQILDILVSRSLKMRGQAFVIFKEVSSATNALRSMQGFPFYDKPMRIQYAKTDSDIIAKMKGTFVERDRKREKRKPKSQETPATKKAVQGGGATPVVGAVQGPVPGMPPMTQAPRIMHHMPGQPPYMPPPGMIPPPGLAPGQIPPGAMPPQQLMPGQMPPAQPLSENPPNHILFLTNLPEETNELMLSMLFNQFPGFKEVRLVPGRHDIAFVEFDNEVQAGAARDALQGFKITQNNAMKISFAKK
UniProt O75400: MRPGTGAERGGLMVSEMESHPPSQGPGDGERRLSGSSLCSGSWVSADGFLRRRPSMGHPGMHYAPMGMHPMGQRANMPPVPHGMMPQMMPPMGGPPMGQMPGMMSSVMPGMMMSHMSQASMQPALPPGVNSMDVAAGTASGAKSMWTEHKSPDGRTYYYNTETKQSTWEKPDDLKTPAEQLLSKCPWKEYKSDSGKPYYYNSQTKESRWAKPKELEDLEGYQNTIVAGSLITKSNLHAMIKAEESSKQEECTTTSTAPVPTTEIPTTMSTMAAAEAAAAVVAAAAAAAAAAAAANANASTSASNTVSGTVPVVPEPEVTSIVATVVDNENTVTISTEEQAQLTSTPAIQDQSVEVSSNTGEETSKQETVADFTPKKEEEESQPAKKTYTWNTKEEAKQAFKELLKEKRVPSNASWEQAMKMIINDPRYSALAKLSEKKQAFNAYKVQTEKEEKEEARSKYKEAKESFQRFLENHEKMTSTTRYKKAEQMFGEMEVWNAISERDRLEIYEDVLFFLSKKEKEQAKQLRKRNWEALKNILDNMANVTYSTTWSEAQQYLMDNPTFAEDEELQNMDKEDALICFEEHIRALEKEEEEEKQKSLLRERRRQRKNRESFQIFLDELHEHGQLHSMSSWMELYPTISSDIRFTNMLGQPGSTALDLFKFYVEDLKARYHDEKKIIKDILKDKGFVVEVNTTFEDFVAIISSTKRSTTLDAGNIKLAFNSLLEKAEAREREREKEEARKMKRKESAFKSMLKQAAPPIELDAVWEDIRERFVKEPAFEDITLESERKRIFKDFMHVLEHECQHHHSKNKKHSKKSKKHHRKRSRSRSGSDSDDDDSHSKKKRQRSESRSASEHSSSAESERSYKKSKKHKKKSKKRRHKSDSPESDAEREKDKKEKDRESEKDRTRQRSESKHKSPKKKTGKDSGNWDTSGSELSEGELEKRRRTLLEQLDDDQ
UniProt Q07955: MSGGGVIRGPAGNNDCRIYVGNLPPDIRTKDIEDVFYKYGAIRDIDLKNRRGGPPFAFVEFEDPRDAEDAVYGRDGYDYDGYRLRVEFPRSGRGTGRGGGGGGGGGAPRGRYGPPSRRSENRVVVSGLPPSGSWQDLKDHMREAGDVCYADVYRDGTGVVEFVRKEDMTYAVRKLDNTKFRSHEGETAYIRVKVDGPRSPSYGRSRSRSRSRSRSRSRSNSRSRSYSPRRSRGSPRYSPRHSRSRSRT

Test in all cases: cross-linking; affinity-purified CE pre-B complexes crosslinked with 400 μM BS3 45 min at 18 °C, dimer peak of a glycerol gradient, trypsin digest, mass spectrometry, pLink
Test [1] concerns the target T1, LUC7L3 (human (endogenous in HeLa)) (UniProt O95232).
T1 sequence: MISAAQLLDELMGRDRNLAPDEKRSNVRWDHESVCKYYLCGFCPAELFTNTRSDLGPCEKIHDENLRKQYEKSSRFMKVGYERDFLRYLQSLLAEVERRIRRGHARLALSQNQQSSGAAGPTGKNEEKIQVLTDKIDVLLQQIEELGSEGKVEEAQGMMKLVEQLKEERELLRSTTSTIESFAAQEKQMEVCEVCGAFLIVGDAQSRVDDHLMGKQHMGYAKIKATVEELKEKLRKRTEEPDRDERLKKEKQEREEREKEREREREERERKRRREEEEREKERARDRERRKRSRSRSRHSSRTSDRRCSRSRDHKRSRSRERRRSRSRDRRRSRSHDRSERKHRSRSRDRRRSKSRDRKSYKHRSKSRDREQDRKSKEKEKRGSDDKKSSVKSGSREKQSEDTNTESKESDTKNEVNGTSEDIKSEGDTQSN

The target of test [2] is U1-70K (human (endogenous in HeLa)) (UniProt P08621).
The target of test [3] is U1-A (human (endogenous in HeLa)) (UniProt P09012).

These are yes or no findings as the source states them, for the method shown. In cells and extracts the contact can be indirect. Some entries that bind do so weakly or less than the wild type. For some of these results: Where a sequence is shown, tags or fusion partners need not be part of it.

Consider PRPF40A (from UniProt O75400 1-957), for which the binding result in test [1], in test [2] and in test [3] was “binds” throughout.

Take SRSF1 (from UniProt Q07955 1-248): in test [2], the binding entry is reported as “binds”.
